This assay addresses Pan HDAC enzyme. Description: HDAC fluorometric activity assay, pan HDAC. It counts as biochemical. How it is done: Pan HDAC enzyme (all the known class I HDACs-HDAC1, HDAC2, HDAC3, HDAC8 and class II HDACs 4-7, 9 and 10), HDAC subtype 1, 3 and 4 activity were determined by using the HDAC fluorometric cellular activity assay (Enzo Life Sciences, Farmingdale, NY, USA) according to the manufacturer’s protocol. […] Percent activity for each of the test compounds is calculated as follows:
Activity = {(Sc − B)/(S° − B)} × 100. Wherein, S c represents the signal measured in the presence of AzP or SAHA, S° denotes signal measured in the absence of AzP or SAHA, B is measured in blank wells containing the medium alone. […] IC50 was then calculated and represented as mean ± SD.

Molecules are shown by their SMILES.

The text below walks through data of publication PMC6359543, “Efficacy of Azatyrosine-Phenylbutyric Hydroxamides, a Histone Deacetylase Inhibitor, on Chemotherapy-Induced Gastrointestinal Mucositis” (International Journal of Molecular Sciences, 2019).

The compound `O=C(CCCCCCC(=O)Nc1ccccc1)NO` [SAHA, suberoylanilide hydroxamic acid, reference compound] yielded a 50% inhibitory concentration (IC50) of 84.5 ± 13.7 nM.

By IC50 is commonly meant the concentration that inhibits the measured activity by half.
